# In publication PMC3281992:
# Sequences of proteins named here, by UniProt entry; tags and fusion partners are left off.
# UniProt O35730: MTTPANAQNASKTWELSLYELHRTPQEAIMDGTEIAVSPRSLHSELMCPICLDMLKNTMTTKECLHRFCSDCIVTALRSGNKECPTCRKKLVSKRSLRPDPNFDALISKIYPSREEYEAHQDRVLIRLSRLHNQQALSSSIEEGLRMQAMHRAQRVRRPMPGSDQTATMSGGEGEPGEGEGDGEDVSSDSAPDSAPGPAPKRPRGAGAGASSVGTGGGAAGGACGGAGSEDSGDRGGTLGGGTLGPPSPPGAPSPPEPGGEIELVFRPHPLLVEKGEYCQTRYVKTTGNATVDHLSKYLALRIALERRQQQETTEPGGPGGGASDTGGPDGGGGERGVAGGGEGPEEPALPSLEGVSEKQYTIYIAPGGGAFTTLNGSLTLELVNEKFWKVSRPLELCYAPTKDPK
# No constants are given. Whether binding was seen depends on the method and setting. Binding seen in cells or lysates may run through a third protein. These calls come from enrichment with a bait or labelling near it, and not all partners need be listed. For some of these results: Where a sequence is shown, tags or fusion partners need not be part of it.
# T1: RYBP-Flag (mouse) (UniProt Q8CCI5)
# T1 sequence: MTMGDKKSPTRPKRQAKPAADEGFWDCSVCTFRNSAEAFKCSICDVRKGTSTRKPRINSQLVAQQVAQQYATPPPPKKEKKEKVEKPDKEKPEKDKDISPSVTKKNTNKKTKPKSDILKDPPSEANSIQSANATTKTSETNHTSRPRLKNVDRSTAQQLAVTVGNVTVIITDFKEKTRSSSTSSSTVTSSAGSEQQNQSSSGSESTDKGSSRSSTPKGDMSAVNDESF
# T2: MEL-18-Flag (mouse) (UniProt P23798)
# T2 sequence: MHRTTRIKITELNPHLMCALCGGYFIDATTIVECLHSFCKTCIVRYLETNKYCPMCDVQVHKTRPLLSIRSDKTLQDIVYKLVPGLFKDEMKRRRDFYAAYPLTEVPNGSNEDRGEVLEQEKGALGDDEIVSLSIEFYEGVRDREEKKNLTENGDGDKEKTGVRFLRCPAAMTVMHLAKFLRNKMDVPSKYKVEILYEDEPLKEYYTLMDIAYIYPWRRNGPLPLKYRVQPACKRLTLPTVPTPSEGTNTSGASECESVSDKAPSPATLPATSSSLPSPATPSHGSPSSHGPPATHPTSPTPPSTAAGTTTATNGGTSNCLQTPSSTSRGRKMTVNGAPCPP
# T3: MEL-18-Flag (mouse), P23798
# T3 chain: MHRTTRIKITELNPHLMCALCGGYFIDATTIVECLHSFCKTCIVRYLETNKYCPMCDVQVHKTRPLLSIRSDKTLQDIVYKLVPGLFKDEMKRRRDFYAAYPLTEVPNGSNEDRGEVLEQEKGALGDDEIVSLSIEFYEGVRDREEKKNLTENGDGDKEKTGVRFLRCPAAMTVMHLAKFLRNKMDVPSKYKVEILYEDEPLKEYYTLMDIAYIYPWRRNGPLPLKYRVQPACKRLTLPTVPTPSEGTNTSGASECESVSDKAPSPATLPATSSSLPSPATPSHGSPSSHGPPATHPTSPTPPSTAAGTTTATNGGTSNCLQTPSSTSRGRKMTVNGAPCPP
# T4: CBX7-Flag (mouse), Q8VDS3
# T4 chain: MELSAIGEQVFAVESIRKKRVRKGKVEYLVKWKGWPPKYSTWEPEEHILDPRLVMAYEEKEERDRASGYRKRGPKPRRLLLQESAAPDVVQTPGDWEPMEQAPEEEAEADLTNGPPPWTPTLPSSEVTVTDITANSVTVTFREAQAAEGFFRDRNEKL
# Key:
# CBX7-Flag (mouse) = CBX7-Flag (mouse) (UniProt Q8VDS3); assay: affinity purification with mass spectrometry; Flag purification of MEL-18-Flag, RYBP-Flag or CBX7-Flag from PGK12.1 mESC nuclear extract; gel bands or lanes analysed by LC-MS/MS
# RYBP-Flag (mouse) = target: T1, RYBP-Flag (mouse); assay: as above
# MEL-18-Flag (mouse) [1] = target: T2, MEL-18-Flag (mouse); assay: as above
# MEL-18-Flag (mouse) [2] = target: T2, MEL-18-Flag (mouse); assay: affinity purification with mass spectrometry + co-IP; Flag purification of MEL-18-Flag from NSC nuclear extract, LC-MS/MS and western blot
# [3] = target: T3, MEL-18-Flag (mouse), P23798; assay: as above; conditions: remark: other sources report otherwise
# [4] = target: T3, MEL-18-Flag (mouse), P23798; assay: affinity purification with mass spectrometry; Flag purification of MEL-18-Flag, RYBP-Flag or CBX7-Flag from PGK12.1 mESC nuclear extract; gel bands or lanes analysed by LC-MS/MS; conditions: remark: other sources report otherwise
# [5] = target: T4, CBX7-Flag (mouse), Q8VDS3; assay: as above; conditions: remark: other sources report otherwise
molecule,measurement,setting,value
RING1A (from UniProt O35730 1-406),binding,CBX7-Flag (mouse),binds
same,binding,RYBP-Flag (mouse),binds
same,binding,MEL-18-Flag (mouse) [1],binds
same,binding,MEL-18-Flag (mouse) [2],binds
"CBX7, Q8VDS3 1-158 (protein) MELSAIGEQVFAVESIRKKRVRKGKVEYLVKWKGWPPKYSTWEPEEHILDPRLVMAYEEKEERDRASGYRKRGPKPRRLLLQESAAPDVVQTPGDWEPMEQAPEEEAEADLTNGPPPWTPTLPSSEVTVTDITANSVTVTFREAQAAEGFFRDRNEKL",binding,[3],binds
same,binding,[4],binds
"MEL-18, P23798 1-342 (protein) MHRTTRIKITELNPHLMCALCGGYFIDATTIVECLHSFCKTCIVRYLETNKYCPMCDVQVHKTRPLLSIRSDKTLQDIVYKLVPGLFKDEMKRRRDFYAAYPLTEVPNGSNEDRGEVLEQEKGALGDDEIVSLSIEFYEGVRDREEKKNLTENGDGDKEKTGVRFLRCPAAMTVMHLAKFLRNKMDVPSKYKVEILYEDEPLKEYYTLMDIAYIYPWRRNGPLPLKYRVQPACKRLTLPTVPTPSEGTNTSGASECESVSDKAPSPATLPATSSSLPSPATPSHGSPSSHGPPATHPTSPTPPSTAAGTTTATNGGTSNCLQTPSSTSRGRKMTVNGAPCPP",binding,[5],binds
